First the molecules themselves.
B1: RAP80 (protein, UniProt Q5U5Q9 1-727)
chain: MPRRKKKIKEASESQNLEKKDLETSSCVSIKKKRRLEDLLIVISDSDGEETKEENGLQKTKTKQSNRSKCLAKRKVAHMSEEEQFALALKMSEQEAREVNNQEEKEEELLRKAIAESLNSCWSSAASATRSRPLAAELSSHSHQENTKDSGTTEGVWQLVPPSLCKGSHVSQGNEAEQRKEPWDHNENTEEEPVSGSSGSWDQSSQPVFENENVKCFDRCTGHLAEHTQCGKPQESTGSGYAFSKAVQGRGDTSRQCLPIPADTKGLQDTGGTVHYYWGIPFCPAGVDPNQYTNVILCQLEVYQKSLKMAQRQLVKKRGFGEPVLPRPPFLIQNECGQEDQTSDKNEGISEDMGDEAKEERQESRASVWHSETKDFQKSPIKSLKQKLLLEEEPTTSRGQSSQGLFVEETSEEGLKSSEGDNSVPTTQSIAALTSKRSLVLMPESSAEEITVCPETQLSFLEPLDLNREDSPDSRELPIEVRMAVGDKQVANREDCMKENPPPAVSSSTRVSCPLCNQDFPPTKIEQHAMYCNGLMEQETVLTRRRREAKNKSDGRTAAQPALDANRKEKCYLCKSLVPLGEYQCHVEACLQLAKVDREDGIEGTRRPRVCAPVEGKQQQRLKKSKDKGHSQGRLLSLLEQSEHRTTGVEKKPKYSEVRTFRMPSPEVEEASCSREMQSTLSQLNLNESPIKSFVPVSEATNCLVDFKEQFAFRSRTKSGRGRRRKS

The chains behind the UniProt entries cited, without tags or fusion partners.
UniProt O35185: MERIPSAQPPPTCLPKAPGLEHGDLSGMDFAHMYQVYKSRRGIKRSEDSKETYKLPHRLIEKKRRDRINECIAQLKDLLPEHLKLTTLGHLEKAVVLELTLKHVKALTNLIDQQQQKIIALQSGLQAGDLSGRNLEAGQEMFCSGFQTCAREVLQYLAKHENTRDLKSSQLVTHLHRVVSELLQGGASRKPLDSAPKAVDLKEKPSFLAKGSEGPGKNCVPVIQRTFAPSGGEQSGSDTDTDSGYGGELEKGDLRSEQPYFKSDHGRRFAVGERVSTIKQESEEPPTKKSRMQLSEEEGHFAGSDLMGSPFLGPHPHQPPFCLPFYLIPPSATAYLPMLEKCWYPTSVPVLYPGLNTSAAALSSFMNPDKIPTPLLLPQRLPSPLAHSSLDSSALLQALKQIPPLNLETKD
UniProt Q8R3B7: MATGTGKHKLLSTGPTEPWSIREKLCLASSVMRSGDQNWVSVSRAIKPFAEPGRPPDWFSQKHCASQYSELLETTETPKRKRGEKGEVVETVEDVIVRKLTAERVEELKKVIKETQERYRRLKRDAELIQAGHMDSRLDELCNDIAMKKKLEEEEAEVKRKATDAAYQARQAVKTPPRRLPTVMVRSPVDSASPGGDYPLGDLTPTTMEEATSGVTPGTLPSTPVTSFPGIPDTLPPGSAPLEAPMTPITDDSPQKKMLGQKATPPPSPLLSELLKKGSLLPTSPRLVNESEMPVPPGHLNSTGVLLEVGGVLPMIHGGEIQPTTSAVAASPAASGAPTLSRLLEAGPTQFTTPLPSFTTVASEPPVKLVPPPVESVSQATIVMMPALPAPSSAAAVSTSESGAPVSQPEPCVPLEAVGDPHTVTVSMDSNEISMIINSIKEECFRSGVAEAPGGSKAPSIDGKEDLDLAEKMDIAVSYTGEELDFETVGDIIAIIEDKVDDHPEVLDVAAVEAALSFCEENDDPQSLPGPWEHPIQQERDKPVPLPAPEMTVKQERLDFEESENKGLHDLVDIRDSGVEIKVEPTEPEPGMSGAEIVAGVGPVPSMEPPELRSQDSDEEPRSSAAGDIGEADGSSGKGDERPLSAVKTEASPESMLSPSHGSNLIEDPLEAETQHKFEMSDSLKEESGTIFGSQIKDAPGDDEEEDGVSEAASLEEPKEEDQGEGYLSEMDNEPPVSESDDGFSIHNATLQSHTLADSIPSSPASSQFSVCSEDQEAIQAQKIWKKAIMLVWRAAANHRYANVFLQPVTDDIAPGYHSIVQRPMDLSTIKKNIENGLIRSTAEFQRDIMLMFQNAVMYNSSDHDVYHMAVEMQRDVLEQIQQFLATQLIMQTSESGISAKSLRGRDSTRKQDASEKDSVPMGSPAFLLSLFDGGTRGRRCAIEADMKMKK
UniProt Q60974: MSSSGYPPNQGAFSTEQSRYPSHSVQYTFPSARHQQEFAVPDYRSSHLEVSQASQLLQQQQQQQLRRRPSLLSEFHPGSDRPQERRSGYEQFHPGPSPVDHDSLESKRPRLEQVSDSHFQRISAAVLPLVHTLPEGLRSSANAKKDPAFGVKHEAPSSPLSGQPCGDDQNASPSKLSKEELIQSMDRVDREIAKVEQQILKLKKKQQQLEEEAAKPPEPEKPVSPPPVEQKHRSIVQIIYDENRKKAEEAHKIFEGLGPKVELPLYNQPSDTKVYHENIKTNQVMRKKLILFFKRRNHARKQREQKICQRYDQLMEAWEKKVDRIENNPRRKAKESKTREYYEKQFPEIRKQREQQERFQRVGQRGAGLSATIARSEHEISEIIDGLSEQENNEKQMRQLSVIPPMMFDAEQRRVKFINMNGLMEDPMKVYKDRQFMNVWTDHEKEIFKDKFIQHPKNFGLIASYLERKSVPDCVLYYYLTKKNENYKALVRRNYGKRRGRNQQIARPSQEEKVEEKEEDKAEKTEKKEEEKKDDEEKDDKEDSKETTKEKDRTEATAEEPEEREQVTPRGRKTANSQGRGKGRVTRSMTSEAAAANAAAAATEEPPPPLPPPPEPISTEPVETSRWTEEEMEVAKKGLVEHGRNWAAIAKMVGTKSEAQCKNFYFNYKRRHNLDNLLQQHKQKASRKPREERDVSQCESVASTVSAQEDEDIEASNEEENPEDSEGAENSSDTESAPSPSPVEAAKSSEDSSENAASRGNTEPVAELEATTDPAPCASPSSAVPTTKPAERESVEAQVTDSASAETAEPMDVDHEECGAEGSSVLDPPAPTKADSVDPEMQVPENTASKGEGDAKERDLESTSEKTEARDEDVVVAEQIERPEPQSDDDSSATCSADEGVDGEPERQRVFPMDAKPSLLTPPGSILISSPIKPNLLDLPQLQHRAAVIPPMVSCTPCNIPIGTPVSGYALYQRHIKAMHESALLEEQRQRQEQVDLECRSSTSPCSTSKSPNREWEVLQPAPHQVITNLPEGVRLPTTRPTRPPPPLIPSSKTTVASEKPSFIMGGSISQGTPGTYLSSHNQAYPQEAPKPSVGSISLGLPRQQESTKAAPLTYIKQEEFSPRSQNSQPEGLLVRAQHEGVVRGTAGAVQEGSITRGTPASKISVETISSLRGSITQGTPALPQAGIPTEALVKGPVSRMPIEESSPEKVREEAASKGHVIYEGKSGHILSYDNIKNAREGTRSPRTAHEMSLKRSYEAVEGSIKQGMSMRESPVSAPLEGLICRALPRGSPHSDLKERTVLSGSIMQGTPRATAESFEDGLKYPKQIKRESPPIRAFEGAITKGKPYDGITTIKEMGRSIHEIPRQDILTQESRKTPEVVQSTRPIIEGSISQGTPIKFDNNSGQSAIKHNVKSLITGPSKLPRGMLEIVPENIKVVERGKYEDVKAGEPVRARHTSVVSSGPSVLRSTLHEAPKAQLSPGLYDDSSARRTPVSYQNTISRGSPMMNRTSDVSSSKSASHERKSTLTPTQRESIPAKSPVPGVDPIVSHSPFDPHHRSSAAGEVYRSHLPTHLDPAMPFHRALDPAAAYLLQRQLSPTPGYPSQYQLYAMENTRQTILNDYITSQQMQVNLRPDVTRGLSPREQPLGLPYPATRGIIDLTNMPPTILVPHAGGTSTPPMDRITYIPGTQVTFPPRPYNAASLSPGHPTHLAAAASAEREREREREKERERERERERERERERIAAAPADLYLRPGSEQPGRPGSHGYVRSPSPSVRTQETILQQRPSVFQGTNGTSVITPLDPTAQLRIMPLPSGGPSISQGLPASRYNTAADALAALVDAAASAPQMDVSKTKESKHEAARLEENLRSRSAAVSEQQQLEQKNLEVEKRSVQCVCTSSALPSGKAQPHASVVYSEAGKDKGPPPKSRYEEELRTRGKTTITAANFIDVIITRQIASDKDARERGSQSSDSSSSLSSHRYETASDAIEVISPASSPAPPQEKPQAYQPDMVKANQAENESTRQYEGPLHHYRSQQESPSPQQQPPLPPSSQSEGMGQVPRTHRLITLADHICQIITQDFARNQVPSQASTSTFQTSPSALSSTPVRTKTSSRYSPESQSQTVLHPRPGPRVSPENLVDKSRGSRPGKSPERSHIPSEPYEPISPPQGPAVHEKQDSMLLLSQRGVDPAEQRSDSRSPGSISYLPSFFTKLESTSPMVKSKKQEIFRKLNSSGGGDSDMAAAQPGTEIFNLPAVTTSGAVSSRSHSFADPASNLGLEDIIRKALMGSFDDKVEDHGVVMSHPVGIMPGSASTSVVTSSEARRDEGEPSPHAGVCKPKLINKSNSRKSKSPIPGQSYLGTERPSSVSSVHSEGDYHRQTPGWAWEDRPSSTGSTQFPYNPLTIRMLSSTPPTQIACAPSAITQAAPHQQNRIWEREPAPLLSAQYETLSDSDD

These are yes or no findings as the source states them, for the method shown. In cells and extracts the contact can be indirect. Here binding means that the protein was enriched with, or labelled near, the bait; the list need not be complete.

The target in the assay is DEC1 (mouse (endogenous in MIN6)) (UniProt O35185). Description: affinity purification with mass spectrometry.
With BRD8 (from UniProt Q8R3B7 1-951), the binding result is “binds”. Take NCOR1 (from UniProt Q60974 1-2453): the binding entry is listed as “binds”. For B1, the binding result is on record as “binds”.
